Source: article PMC12574921

The chains behind the UniProt entries cited, without tags or fusion partners. Where a name states a change or a piece, a line headed by the entry shows the natural chain unless it says otherwise.
UniProt Q9VP77: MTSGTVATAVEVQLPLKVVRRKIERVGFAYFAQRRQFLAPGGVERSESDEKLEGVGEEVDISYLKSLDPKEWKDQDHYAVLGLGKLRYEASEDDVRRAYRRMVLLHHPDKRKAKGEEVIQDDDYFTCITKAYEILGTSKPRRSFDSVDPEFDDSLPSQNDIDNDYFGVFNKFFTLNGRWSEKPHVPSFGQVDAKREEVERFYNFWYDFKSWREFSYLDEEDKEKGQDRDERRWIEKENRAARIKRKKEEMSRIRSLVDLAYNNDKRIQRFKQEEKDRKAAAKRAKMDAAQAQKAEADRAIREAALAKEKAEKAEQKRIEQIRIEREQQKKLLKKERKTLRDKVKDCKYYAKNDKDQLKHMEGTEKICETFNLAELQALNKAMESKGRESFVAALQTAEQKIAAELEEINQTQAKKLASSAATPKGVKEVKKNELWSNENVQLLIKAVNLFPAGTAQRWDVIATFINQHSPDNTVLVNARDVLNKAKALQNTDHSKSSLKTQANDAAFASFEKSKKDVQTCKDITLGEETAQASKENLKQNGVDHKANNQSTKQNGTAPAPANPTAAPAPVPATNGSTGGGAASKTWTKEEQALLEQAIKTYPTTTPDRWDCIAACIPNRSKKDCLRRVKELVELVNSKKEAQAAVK
UniProt Q9VSI1: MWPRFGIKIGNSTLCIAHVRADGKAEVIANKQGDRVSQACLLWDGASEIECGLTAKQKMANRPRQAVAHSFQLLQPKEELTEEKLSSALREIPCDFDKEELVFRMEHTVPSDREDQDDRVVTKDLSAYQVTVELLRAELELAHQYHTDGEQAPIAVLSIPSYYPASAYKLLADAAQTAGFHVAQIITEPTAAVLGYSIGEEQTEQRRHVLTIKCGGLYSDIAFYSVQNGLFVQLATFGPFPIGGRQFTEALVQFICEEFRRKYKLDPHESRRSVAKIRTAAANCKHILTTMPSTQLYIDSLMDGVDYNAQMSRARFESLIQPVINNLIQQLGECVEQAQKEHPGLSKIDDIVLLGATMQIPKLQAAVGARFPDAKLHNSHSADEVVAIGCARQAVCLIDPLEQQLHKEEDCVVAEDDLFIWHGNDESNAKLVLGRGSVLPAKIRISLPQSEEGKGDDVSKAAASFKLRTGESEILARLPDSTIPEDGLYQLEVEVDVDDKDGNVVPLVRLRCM
UniProt P11147: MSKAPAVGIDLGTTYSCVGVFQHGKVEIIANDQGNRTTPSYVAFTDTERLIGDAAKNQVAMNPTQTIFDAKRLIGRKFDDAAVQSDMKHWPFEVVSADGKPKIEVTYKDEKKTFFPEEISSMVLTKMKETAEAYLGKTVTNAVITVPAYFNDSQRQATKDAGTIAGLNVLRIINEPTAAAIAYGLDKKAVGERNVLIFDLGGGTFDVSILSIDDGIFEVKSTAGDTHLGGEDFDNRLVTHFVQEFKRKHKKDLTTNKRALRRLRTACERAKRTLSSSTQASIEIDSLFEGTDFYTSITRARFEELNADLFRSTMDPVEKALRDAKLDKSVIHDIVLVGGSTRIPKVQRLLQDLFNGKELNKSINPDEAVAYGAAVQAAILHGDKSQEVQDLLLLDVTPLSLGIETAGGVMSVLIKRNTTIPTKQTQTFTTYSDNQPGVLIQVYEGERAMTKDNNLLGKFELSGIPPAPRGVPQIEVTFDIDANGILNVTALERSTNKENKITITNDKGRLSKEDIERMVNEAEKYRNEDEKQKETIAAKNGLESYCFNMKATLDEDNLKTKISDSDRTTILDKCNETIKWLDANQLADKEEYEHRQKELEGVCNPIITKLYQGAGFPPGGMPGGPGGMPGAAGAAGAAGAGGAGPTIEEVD
UniProt P19109: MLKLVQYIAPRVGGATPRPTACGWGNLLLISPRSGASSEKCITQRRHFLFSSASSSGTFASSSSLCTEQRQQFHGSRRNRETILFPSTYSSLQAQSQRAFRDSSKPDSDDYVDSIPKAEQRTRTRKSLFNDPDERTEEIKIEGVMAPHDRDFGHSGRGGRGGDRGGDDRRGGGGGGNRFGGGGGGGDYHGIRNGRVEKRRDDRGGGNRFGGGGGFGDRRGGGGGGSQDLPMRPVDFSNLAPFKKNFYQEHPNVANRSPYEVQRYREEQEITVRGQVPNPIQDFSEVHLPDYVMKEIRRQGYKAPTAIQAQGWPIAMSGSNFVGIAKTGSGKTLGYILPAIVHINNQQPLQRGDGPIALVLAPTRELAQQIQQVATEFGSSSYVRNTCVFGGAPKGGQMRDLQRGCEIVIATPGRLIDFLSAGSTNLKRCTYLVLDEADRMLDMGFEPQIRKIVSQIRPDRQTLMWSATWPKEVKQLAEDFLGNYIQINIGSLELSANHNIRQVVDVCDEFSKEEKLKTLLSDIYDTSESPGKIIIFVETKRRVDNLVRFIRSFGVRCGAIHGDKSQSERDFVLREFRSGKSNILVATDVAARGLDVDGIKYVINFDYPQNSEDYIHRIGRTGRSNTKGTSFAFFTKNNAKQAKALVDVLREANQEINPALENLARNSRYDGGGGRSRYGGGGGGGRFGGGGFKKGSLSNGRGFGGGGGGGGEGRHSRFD
UniProt Q9VUH8: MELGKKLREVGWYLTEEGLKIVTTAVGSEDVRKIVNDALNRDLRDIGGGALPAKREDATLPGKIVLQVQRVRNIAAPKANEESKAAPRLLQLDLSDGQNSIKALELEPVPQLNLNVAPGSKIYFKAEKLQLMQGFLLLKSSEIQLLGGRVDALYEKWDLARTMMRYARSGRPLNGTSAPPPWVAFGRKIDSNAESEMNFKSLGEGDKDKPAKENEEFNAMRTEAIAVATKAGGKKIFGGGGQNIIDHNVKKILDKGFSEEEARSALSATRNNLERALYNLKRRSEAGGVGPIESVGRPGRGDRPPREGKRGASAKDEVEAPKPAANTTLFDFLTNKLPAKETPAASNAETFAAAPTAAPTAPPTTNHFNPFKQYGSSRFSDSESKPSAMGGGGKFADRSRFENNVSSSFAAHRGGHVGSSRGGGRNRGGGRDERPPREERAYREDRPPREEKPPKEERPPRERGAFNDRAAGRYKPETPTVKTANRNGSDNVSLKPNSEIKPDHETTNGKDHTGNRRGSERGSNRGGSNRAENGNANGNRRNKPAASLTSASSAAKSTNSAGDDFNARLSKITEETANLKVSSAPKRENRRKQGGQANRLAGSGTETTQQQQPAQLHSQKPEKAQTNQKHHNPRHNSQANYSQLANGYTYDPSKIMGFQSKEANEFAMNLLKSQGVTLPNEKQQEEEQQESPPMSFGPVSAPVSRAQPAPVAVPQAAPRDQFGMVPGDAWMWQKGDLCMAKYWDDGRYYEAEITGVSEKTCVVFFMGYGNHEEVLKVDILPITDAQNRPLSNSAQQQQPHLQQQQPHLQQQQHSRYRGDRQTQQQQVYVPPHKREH
UniProt Q9V426: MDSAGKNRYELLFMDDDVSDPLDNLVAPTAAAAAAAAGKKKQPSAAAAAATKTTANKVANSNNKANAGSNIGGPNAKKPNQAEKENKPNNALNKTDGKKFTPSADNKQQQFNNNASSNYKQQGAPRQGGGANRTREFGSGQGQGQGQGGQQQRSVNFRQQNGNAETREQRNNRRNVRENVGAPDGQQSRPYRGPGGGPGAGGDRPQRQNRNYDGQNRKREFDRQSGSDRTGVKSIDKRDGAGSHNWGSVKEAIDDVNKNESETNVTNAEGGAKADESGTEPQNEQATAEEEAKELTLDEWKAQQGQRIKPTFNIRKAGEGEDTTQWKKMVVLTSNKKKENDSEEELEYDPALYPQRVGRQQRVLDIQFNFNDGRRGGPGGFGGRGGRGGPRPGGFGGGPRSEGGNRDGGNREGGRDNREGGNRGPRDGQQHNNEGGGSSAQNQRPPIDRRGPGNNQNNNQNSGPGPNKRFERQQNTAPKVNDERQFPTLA

What was measured:
GFP-Zrf1 (Drosophila) [1] = target: GFP-Zrf1 (Drosophila) (UniProt Q9VP77); experiment: co-IP; Zrf1 immunoprecipitate blotted with antibodies against endogenous RISC components
GFP-Zrf1 (Drosophila) [2] = target: GFP-Zrf1 (Drosophila) (UniProt Q9VP77); experiment: co-IP; reciprocal: S2R+ cells with GFP-Zrf1 and C-terminal-3xHA-tagged RISC components
GFP-128up (Drosophila) = target: T1, GFP-128up (Drosophila) (UniProt P32234); experiment: co-IP; S2R+ cells transfected with Zrf1-3xHA and N-terminal-GFP-tagged candidates; immunoprecipitation with anti-GFP, immunoblot with anti-HA
T1 sequence: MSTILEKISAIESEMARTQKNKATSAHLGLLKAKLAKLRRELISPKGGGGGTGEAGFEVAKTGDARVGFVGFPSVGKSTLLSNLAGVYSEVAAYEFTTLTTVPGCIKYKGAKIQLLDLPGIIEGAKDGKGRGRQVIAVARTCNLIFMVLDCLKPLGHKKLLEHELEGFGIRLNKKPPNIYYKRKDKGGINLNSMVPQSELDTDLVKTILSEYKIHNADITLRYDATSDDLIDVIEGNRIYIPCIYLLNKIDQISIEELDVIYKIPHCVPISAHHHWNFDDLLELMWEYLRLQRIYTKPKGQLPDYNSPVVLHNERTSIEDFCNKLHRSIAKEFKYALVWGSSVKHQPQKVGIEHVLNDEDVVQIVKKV

GFP-CG7182 (Drosophila) = GFP-CG7182 (Drosophila) (UniProt Q9VSI1); experiment: as above
GFP-CG8635 (Drosophila) = target: T2, GFP-CG8635 (Drosophila) (UniProt Q7JWR9); experiment: as above
T2 sequence: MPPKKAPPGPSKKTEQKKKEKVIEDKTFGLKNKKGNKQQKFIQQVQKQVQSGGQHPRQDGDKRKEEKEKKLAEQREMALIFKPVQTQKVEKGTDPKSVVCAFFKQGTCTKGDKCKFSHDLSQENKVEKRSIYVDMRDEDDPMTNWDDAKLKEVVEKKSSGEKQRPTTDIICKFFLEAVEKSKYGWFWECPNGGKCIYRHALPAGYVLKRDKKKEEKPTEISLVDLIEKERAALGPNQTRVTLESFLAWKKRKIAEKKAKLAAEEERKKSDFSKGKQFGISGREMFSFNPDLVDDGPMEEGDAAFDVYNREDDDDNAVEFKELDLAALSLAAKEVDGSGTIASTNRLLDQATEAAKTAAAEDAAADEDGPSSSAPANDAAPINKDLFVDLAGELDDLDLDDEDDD

GFP-FDY (Drosophila) = experiment: as above
GFP-Hsc70-4 (Drosophila) = GFP-Hsc70-4 (Drosophila) (UniProt P11147); experiment: as above
GFP-Rm62 (Drosophila) = GFP-Rm62 (Drosophila) (UniProt P19109); experiment: as above
GFP-mod (Drosophila) = target: T3, GFP-mod (Drosophila) (UniProt P13469); experiment: as above
T3 sequence: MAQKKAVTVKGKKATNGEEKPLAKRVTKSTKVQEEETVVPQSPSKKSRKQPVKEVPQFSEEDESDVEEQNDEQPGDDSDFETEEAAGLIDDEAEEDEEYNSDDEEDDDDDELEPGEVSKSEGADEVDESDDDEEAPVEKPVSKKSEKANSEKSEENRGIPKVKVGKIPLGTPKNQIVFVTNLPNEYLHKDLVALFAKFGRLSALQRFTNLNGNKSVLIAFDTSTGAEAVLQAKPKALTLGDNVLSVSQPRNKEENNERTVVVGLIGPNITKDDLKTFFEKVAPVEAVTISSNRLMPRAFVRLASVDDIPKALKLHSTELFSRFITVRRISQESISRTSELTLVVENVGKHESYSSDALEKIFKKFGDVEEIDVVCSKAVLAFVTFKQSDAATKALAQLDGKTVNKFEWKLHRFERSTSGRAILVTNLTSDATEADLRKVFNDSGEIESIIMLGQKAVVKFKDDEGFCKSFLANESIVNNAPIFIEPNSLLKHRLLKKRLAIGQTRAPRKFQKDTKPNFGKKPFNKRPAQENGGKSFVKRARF

GFP-penguin (Drosophila) = target: T4, GFP-penguin (Drosophila) (UniProt O61345); experiment: as above
T4 sequence: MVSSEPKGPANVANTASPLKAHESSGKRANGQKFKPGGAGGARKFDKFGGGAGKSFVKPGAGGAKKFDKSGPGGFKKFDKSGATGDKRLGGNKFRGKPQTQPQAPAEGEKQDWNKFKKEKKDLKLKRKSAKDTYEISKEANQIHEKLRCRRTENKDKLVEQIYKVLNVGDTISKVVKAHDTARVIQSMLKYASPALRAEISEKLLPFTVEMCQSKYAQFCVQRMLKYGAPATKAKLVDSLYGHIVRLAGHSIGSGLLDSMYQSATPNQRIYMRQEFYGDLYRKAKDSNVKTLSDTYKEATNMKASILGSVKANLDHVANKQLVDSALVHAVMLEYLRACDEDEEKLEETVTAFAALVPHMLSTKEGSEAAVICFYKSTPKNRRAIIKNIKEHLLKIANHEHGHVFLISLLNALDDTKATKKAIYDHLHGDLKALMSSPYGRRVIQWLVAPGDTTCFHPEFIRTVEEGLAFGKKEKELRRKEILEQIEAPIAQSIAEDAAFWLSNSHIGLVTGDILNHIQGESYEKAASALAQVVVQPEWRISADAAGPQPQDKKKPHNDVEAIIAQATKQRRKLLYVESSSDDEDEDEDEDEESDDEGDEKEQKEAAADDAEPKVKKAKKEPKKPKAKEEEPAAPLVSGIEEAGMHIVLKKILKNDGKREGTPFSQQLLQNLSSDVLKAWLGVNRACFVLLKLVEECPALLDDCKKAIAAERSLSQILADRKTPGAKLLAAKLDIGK

Rm62 (endogenous) (from UniProt P19109 1-719)
binding (GFP-Zrf1 (Drosophila) [1]): binds

Rm62-3xHA (from UniProt P19109 1-719)
binding (GFP-Zrf1 (Drosophila) [2]): binds

Tdrd3 (endogenous) (from UniProt Q9VUH8)
binding (GFP-Zrf1 (Drosophila) [1]): binds

Vig (endogenous) (from UniProt Q9V426)
binding (GFP-Zrf1 (Drosophila) [1]): binds

Zrf1-3xHA (from UniProt Q9VP77)
binding (GFP-128up (Drosophila)): binds
binding (GFP-CG7182 (Drosophila)): binds
binding (GFP-CG8635 (Drosophila)): binds
binding (GFP-FDY (Drosophila)): binds
binding (GFP-Hsc70-4 (Drosophila)): binds
binding (GFP-Rm62 (Drosophila)): binds
binding (GFP-mod (Drosophila)): binds
binding (GFP-penguin (Drosophila)): binds

B1: AGO2-3xHA (protein, UniProt Q9VUQ5 1-1214)
chain: MGKKDKNKKGGQDSAAAPQPQQQQKQQQQRQQQPQQLQQPQQLQQPQQLQQPQQQQQQQPHQQQQQSSRQQPSTSSGGSRASGFQQGGQQQKSQDAEGWTAQKKQGKQQVQGWTKQGQQGGHQQGRQGQDGGYQQRPPGQQQGGHQQGRQGQEGGYQQRPPGQQQGGHQQGRQGQEGGYQQRPSGQQQGGHQQGRQGQEGGYQQRPPGQQQGGHQQGRQGQEGGYQQRPSGQQQGGHQQGRQGQEGGYQQRPPGQQQGGHQQGRQGQEGGYQQRPPGQQQGGHEQGRQGQEGGYQQRPSGQQQGGHQQGRQGQEGGYQQRPSGQQQGGHQQGRQGQEGGYQQRPSGQQQGGHQQGRQGQEGGYQQRPPGQQPNQTQSQGQYQSRGPPQQQQAAPLPLPPQPAGSIKRGTIGKPGQVGINYLDLDLSKMPSVAYHYDVKIMPERPKKFYRQAFEQFRVDQLGGAVLAYDGKASCYSVDKLPLNSQNPEVTVTDRNGRTLRYTIEIKETGDSTIDLKSLTTYMNDRIFDKPMRAMQCVEVVLASPCHNKAIRVGRSFFKMSDPNNRHELDDGYEALVGLYQAFMLGDRPFLNVDISHKSFPISMPMIEYLERFSLKAKINNTTNLDYSRRFLEPFLRGINVVYTPPQSFQSAPRVYRVNGLSRAPASSETFEHDGKKVTIASYFHSRNYPLKFPQLHCLNVGSSIKSILLPIELCSIEEGQALNRKDGATQVANMIKYAATSTNVRKRKIMNLLQYFQHNLDPTISRFGIRIANDFIVVSTRVLSPPQVEYHSKRFTMVKNGSWRMDGMKFLEPKPKAHKCAVLYCDPRSGRKMNYTQLNDFGNLIISQGKAVNISLDSDVTYRPFTDDERSLDTIFADLKRSQHDLAIVIIPQFRISYDTIKQKAELQHGILTQCIKQFTVERKCNNQTIGNILLKINSKLNGINHKIKDDPRLPMMKNTMYIGADVTHPSPDQREIPSVVGVAASHDPYGASYNMQYRLQRGALEEIEDMFSITLEHLRVYKEYRNAYPDHIIYYRDGVSDGQFPKIKNEELRCIKQACDKVGCKPKICCVIVVKRHHTRFFPSGDVTTSNKFNNVDPGTVVDRTIVHPNEMQFFMVSHQAIQGTAKPTRYNVIENTGNLDIDLLQQLTYNLCHMFPRCNRSVSYPAPAYLAHLVAARGRVYLTGTNRFLDLKKEYAKRTIVPEFMKKNPMYFV
binding (GFP-Zrf1 (Drosophila) [2]): binds

B2: AGO2 (endogenous) (protein, UniProt Q9VUQ5 1-1214)
chain: B1 chain
binding (GFP-Zrf1 (Drosophila) [1]): binds

Results are given in words; binding and its absence hold for the method and conditions named. In cells and extracts the contact can be indirect. Binding can be weak; no strength is given. For some assays here: Where a sequence is shown, tags or fusion partners need not be part of it.
